Among the data in publication PMC11106739 (ACS Chemical Biology, 2024) are isolated yield values, retold here.

The nature of the first data set: general procedure: Fmoc solid-phase peptide synthesis; preloaded Wang resin (Fmoc-Ala-Wang 0.29 mmol/g) or 2-chlorotrityl chloride (CTC) resin; Fmoc-Ala-CTC resin (0.68 mmol/g); HATU/DIPEA (automated). To be noted: whole synthesis, overall, scale 0.25 mmol.
Oct-TriD registered an isolated yield of 51%.

A further data set in a line: general procedure: Fmoc solid-phase peptide synthesis; Fmoc-Ala-CTC resin; HATU/DIPEA (automated). The settings on record: whole synthesis, overall, scale 0.05 mmol.
Oct-Gly9 gave an isolated yield of 10%.

For Oct-Ala9, the isolated yield was 11%.

As to Oct-Ser9, the isolated yield was found to be 16%.

Oct-Dab9 displayed an isolated yield of 12%.

The substance Oct-Glu9 yielded an isolated yield of 12%.

Regarding Oct-Tyr9, the isolated yield was 16%.

Oct-Val9 came in with an isolated yield of 11%.

In turn, Oct-His9 returned an isolated yield of 16%.

Oct-Ile9 yielded an isolated yield of 16%.

A further data set is described as follows: general procedure: Fmoc solid-phase peptide synthesis; Fmoc-Ala-Wang resin; HATU/DIPEA (automated). The settings on record: whole synthesis, overall, scale 0.25 mmol.
In turn, Oct-TriA5 displayed an isolated yield of 23%.

On to Oct-TriA1, for which the isolated yield was determined as 19%.
